The experiment addresses Tyrosine-protein phosphatase nonreceptor type 13 (PTPN13), endogenous (human (endogenous in human HCC cell lines)) (UniProt Q12923). Briefly: co-IP; CoIP of endogenous proteins; data not shown.

Chains of the proteins cited; added tags and fusions are not shown.
UniProt Q12923: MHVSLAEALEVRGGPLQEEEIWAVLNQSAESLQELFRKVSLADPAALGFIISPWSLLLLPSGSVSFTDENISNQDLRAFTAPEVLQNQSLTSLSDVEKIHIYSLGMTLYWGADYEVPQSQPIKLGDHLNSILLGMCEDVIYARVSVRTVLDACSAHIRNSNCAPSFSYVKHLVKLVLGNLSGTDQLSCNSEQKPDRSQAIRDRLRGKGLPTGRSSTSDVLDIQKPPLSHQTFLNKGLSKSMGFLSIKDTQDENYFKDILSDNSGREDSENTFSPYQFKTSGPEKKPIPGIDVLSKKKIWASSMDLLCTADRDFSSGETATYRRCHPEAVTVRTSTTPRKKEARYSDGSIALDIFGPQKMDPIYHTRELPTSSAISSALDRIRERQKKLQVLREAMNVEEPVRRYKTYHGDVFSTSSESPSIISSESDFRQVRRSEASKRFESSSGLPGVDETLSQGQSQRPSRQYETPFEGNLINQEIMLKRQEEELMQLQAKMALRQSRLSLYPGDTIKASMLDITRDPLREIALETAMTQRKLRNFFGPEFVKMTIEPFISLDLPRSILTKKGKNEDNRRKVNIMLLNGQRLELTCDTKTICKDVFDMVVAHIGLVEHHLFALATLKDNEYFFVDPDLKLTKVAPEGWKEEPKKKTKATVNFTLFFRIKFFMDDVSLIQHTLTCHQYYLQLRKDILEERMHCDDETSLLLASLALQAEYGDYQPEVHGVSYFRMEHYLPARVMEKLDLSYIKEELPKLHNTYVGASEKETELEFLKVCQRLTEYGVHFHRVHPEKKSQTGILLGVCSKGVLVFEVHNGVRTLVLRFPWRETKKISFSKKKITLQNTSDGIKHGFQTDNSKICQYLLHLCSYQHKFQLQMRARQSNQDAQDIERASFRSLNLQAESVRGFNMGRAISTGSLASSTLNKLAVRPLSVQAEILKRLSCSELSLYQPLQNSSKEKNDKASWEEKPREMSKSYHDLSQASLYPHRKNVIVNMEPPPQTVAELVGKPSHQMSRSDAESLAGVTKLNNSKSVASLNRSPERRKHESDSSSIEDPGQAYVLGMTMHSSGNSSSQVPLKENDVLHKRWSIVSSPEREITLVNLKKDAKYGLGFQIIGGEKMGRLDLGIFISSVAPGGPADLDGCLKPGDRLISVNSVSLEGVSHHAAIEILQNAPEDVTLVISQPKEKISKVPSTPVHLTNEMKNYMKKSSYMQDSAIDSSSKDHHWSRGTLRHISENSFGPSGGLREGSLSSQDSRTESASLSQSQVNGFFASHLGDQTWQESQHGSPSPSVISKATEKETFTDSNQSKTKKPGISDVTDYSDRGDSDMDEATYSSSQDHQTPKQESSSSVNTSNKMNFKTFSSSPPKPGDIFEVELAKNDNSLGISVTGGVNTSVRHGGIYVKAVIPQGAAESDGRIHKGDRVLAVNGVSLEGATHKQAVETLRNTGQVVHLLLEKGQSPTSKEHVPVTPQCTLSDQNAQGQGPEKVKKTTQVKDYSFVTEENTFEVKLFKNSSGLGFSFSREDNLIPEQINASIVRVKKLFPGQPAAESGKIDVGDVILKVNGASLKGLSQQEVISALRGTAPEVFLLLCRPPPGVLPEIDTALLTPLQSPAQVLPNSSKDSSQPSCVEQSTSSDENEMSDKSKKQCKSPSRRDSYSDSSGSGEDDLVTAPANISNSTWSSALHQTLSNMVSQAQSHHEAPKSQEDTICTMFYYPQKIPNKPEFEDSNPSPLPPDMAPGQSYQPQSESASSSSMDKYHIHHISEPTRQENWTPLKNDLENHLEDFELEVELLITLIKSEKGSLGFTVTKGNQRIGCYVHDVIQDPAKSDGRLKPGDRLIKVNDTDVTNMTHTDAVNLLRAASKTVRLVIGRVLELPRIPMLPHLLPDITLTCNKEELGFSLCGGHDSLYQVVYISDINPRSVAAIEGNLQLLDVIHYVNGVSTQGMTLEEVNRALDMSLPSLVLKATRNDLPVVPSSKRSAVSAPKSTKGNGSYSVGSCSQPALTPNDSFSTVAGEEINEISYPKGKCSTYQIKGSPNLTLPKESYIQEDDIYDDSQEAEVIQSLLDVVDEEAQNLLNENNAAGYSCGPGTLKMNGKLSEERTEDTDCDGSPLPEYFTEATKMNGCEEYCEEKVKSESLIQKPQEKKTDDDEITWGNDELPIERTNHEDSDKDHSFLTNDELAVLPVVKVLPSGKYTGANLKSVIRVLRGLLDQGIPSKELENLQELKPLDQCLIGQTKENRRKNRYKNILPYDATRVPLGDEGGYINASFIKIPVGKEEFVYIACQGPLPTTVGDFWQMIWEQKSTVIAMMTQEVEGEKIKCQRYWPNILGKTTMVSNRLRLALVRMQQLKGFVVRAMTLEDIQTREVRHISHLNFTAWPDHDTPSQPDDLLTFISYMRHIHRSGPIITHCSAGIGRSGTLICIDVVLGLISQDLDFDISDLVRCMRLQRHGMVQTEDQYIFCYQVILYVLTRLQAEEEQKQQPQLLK
UniProt O00425: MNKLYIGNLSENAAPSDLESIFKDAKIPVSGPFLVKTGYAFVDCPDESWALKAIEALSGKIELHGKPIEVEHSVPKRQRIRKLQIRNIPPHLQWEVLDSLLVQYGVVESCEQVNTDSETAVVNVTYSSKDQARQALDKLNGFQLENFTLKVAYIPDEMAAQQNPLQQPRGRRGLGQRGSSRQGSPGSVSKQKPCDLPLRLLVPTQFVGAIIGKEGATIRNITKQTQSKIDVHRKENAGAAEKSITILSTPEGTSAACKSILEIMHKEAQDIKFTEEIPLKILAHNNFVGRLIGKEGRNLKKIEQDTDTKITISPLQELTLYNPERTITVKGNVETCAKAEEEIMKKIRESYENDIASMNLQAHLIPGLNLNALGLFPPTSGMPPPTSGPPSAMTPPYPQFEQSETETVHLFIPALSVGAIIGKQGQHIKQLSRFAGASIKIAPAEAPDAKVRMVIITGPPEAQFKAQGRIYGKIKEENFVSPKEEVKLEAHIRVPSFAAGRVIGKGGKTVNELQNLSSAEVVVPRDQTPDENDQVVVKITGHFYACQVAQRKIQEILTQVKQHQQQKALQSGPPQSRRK
UniProt P14618: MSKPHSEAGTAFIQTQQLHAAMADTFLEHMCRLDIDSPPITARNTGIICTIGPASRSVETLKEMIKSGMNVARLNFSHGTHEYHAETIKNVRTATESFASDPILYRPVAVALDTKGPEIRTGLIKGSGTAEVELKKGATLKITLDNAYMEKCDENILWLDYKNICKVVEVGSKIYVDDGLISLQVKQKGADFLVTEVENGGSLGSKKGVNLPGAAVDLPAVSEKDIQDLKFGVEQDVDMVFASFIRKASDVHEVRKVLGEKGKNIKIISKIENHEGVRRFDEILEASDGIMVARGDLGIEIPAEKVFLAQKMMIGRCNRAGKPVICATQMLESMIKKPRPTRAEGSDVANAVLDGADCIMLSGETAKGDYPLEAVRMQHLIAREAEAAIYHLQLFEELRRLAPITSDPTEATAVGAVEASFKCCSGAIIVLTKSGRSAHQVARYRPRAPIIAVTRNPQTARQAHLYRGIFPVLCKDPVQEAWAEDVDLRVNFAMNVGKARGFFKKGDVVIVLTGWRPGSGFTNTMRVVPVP

Results are given in words; binding and its absence hold for the method and conditions named. In cells and extracts the contact can be indirect. Some results given as binding are weak or reduced against the parent protein; the word gives no strength.

With “IGF2BP3, endogenous (from UniProt O00425 1-579)”, the binding result is “binds”.
In the case of “PKM, endogenous (from UniProt P14618 1-531) (enzyme)” it was “binds”.

Source of the values: paper PMC7790756.
